# Measured values reported in publication PMC8384837.
# Where a chain is given by its changes, count along the chain named. The list shows a part of the results. For part of these data: At the low end of the ranking, values are background and their order means little. For part of these data: The source does not settle which construct or isoform was used.
# Tests used:
# Conditions in all cases: yeast three-hybrid, YBZ-1, SC-Leu-His + 0.5 mM 3-AT, 4 days
# [1] = target: T1, PUM1 PUF domain R3-SWL C935S + R936W + Q939L (Homo sapiens) (UniProt Q14671)
# T1 sequence: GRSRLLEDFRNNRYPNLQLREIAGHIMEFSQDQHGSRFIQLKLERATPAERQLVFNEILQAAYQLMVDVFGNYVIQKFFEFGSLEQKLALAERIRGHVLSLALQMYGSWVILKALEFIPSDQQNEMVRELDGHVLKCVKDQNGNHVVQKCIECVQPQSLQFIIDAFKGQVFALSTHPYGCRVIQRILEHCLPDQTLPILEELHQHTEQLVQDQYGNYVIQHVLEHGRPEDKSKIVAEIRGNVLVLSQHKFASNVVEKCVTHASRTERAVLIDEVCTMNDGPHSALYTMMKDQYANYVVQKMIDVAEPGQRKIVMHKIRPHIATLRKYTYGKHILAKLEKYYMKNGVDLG
# [2] = target: T2, PUM1 PUF domain R3-TGQ C935T + R936G (UniProt Q14671)
# T2 sequence: T1 sequence with S108T, W109G, L112Q
# [3] = target: T3, PUM1 PUF domain R3-THE R4-TFR C935T + R936H + Q939E + N971T + H972F + Q975R (Homo sapiens) (UniProt Q14671)
# T3 sequence: T1 sequence with S108T, W109H, L112E, N144T, H145F, Q148R
# [4] = target: T4, PUM1 PUF domain R3-THE R4-TFR R7-NPG C935T + R936H + Q939E + N971T + H972F + Q975R + S1079N + N1080P + E1083G (UniProt Q14671)
# T4 sequence: T1 sequence with S108T, W109H, L112E, N144T, H145F, Q148R, S252N, N253P, E256G
# [5] = target: T5, PUM1 PUF domain R3-TRG C935T + Q939G (Homo sapiens) (UniProt Q14671)
# T5 sequence: T1 sequence with S108T, W109R, L112G
# [6] = target: T6, PUM1 PUF domain R3-TRL C935T + Q939L (UniProt Q14671)
# T6 sequence: T1 sequence with S108T, W109R
# [7] = target: T7, PUM1 PUF domain R3-TRW C935T + Q939W (UniProt Q14671)
# T7 sequence: T1 sequence with S108T, W109R, L112W
# [8] = target: T8, PUM1 PUF domain R3-TSR C935T + R936S + Q939R (Homo sapiens) (UniProt Q14671)
# T8 sequence: T1 sequence with S108T, W109S, L112R
# [9] = target: T9, PUM1 PUF domain R3-TTR C935T + R936T + Q939R (UniProt Q14671)
# T9 sequence: T1 sequence with S108T, W109T, L112R
# [10] = target: T10, PUM1 PUF domain R3-VCI C935V + R936C + Q939I (UniProt Q14671)
# T10 sequence: T1 sequence with S108V, W109C, L112I
# [11] = target: T11, PUM1 PUF domain R3-VCQ C935V + R936C (Homo sapiens) (UniProt Q14671)
# T11 sequence: T1 sequence with S108V, W109C, L112Q
# [12] = target: T12, PUM1 PUF domain R3-VFF C935V + R936F + Q939F (UniProt Q14671)
# T12 sequence: T1 sequence with S108V, W109F, L112F
# [13] = target: T13, PUM1 PUF domain R3-VFW C935V + R936F + Q939W (UniProt Q14671)
# T13 sequence: T1 sequence with S108V, W109F, L112W
# [14] = target: T14, PUM1 PUF domain R3-VFY C935V + R936F + Q939Y (UniProt Q14671)
# T14 sequence: T1 sequence with S108V, W109F, L112Y
# [15] = target: T15, PUM1 PUF domain R3-VHW C935V + R936H + Q939W (Homo sapiens) (UniProt Q14671)
# T15 sequence: T1 sequence with S108V, W109H, L112W
# [16] = target: T16, PUM1 PUF domain R3-VNV C935V + R936N + Q939V (UniProt Q14671)
# T16 sequence: T1 sequence with S108V, W109N, L112V
# [17] = target: T17, PUM1 PUF domain R3-VRD C935V + Q939D (Homo sapiens) (UniProt Q14671)
# T17 sequence: T1 sequence with S108V, W109R, L112D
# [18] = target: T18, PUM1 PUF domain R3-VRF C935V + Q939F (Homo sapiens) (UniProt Q14671)
# T18 sequence: T1 sequence with S108V, W109R, L112F
# [19] = target: T19, PUM1 PUF domain R3-VRH C935V + Q939H (UniProt Q14671)
# T19 sequence: T1 sequence with S108V, W109R, L112H
# [20] = target: T20, PUM1 PUF domain R3-VRI C935V + Q939I (Homo sapiens) (UniProt Q14671)
# T20 sequence: T1 sequence with S108V, W109R, L112I
# [21] = target: T21, PUM1 PUF domain R3-VRK C935V + Q939K (UniProt Q14671)
# T21 sequence: T1 sequence with S108V, W109R, L112K
# [22] = target: T22, PUM1 PUF domain R3-VRL C935V + Q939L (UniProt Q14671)
# T22 sequence: T1 sequence with S108V, W109R
# [23] = target: T23, PUM1 PUF domain R3-VRN C935V + Q939N (Homo sapiens) (UniProt Q14671)
# T23 sequence: T1 sequence with S108V, W109R, L112N
# [24] = target: T24, PUM1 PUF domain R3-VRT C935V + Q939T (Homo sapiens) (UniProt Q14671)
# T24 sequence: T1 sequence with S108V, W109R, L112T
# [25] = target: T25, PUM1 PUF domain R3-VRV C935V + Q939V (Homo sapiens) (UniProt Q14671)
# T25 sequence: T1 sequence with S108V, W109R, L112V
# [26] = target: T26, PUM1 PUF domain R3-VRW C935V + Q939W (UniProt Q14671)
# T26 sequence: T1 sequence with S108V, W109R, L112W
# [27] = target: T27, PUM1 PUF domain R3-VRY C935V + Q939Y (Homo sapiens) (UniProt Q14671)
# T27 sequence: T1 sequence with S108V, W109R, L112Y
# [28] = target: T28, PUM1 PUF domain R3-VSK C935V + R936S + Q939K (Homo sapiens) (UniProt Q14671)
# T28 sequence: T1 sequence with S108V, W109S, L112K
# [29] = target: T29, PUM1 PUF domain R3-VWP C935V + R936W + Q939P (Homo sapiens) (UniProt Q14671)
# T29 sequence: T1 sequence with S108V, L112P
# [30] = target: T30, PUM1 PUF domain R3-VYF C935V + R936Y + Q939F (UniProt Q14671)
# T30 sequence: T1 sequence with S108V, W109Y, L112F
# [31] = target: T31, PUM1 PUF domain R3-VYP C935V + R936Y + Q939P (UniProt Q14671)
# T31 sequence: T1 sequence with S108V, W109Y, L112P
# [32] = target: T32, PUM1 PUF domain R3-VYW C935V + R936Y + Q939W (Homo sapiens) (UniProt Q14671)
# T32 sequence: T1 sequence with S108V, W109Y, L112W
# [33] = target: T33, PUM1 PUF domain R5-PHQ R6-SWD C1007P + R1008H + N1043S + Y1044W + Q1047D (UniProt Q14671)
# T33 sequence: T1 sequence with S108C, W109R, L112Q, C180P, R181H, N216S, Y217W, Q220D
sequence,measurement,setting,value
GGCUAGAACUAGUGGAUCCCCCGGCGCCCGGCGGCUCGAGCCCGGGUAAGUGUAAGUAGUCUGCAUGCCGCCGGGCGCCAUGCCUGCAGGUCGACUCUAGAAAACAUG,binding signal (log2 enrichment (interaction score)),[1],-1.58
same,binding signal (log2 enrichment (interaction score)),[2],< -8.07
same,binding signal (log2 enrichment (interaction score)),[3],-1.27
same,binding signal (log2 enrichment (interaction score)),[4],-2.47
same,binding signal (log2 enrichment (interaction score)),[5],0.09
same,binding signal (log2 enrichment (interaction score)),[6],-3.95
same,binding signal (log2 enrichment (interaction score)),[7],-4.69
same,binding signal (log2 enrichment (interaction score)),[8],0.13
same,binding signal (log2 enrichment (interaction score)),[9],-4.35
same,binding signal (log2 enrichment (interaction score)),[10],< -8.87
same,binding signal (log2 enrichment (interaction score)),[11],-1.25
same,binding signal (log2 enrichment (interaction score)),[12],< -8.66
same,binding signal (log2 enrichment (interaction score)),[13],-5.9
same,binding signal (log2 enrichment (interaction score)),[14],< -7.58
same,binding signal (log2 enrichment (interaction score)),[15],-0.22
same,binding signal (log2 enrichment (interaction score)),[16],-6.44
same,binding signal (log2 enrichment (interaction score)),[17],-0.71
same,binding signal (log2 enrichment (interaction score)),[18],-0.56
same,binding signal (log2 enrichment (interaction score)),[19],-6.99
same,binding signal (log2 enrichment (interaction score)),[20],-0.92
same,binding signal (log2 enrichment (interaction score)),[21],-2.99
same,binding signal (log2 enrichment (interaction score)),[22],-3.88
same,binding signal (log2 enrichment (interaction score)),[23],-1.7
same,binding signal (log2 enrichment (interaction score)),[24],-1.91
same,binding signal (log2 enrichment (interaction score)),[25],-1.68
same,binding signal (log2 enrichment (interaction score)),[26],-5.08
same,binding signal (log2 enrichment (interaction score)),[27],-1.2
same,binding signal (log2 enrichment (interaction score)),[28],-0.34
same,binding signal (log2 enrichment (interaction score)),[29],-1.07
same,binding signal (log2 enrichment (interaction score)),[30],-5.88
same,binding signal (log2 enrichment (interaction score)),[31],< -7.55
same,binding signal (log2 enrichment (interaction score)),[32],-0.41
same,binding signal (log2 enrichment (interaction score)),[33],-6.92

# Shown as tab-separated lines: entries from further up
sequence	measurement	setting	value
GGCUAGAACUAGUGGAUCCCCCGGCGCCCGGCGGCUCGAGCCCGGGUAAGUGUAAGUAGUCUGCAUGCCGCCGGGCGCCAUGCCUGCAGGUCGACUCUAGAAAACAUG	binding signal (log2 enrichment (interaction score))	[11]	-1.25
same	binding signal (log2 enrichment (interaction score))	[12]	< -8.66
